According to PubChem BioAssay AID2685 (National Center for Advancing Translational Sciences (NCATS), 2010):
The list shows a part of the results. Further columns of the screen follow, without active or inactive calls. Compounds called inactive in the main read-out are mostly missing here. The note in brackets gives the kind of curve behind each potency; many fits are weak.

Experiment: qHTS Assay for Lipid Storage Modulators in Drosophila S3 Cells;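 as to cell number change: cells counted by Cell Tracker Red CMTPX staining in the red channel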
Details: BODIPY lipid droplet fluorescence, 18-24 h; for cell number change: measured here: cell count max response, cells fed with added oleic acid
Outline: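 Drosophila S3 cells loaded with oleic acid (400 uM, as added) and compounds at several concentrations; lipid droplets imaged by 488-nm laser-scanning cytometry, 500–530 nm intensity and object ratio to cell channel. Percent activity normalized to 20 uM Triacsin C.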

[1] = measured here: lipid fluorescence (Fed channel) AC50, cells fed with added oleic acid
[2] = measured here: cell number channel AC50, cells fed with added oleic acid

Structure (SMILES) | cell number change | AC50 [1] | AC50 [2]
CCOC(=O)/C(=N\Nc1cccc(C(F)(F)F)c1)N1CCOCC1 | -25.7% | 3.26 µM [falling, full curve, poor fit] | –
Cc1ccc(S(=O)(=O)CCC(=O)Nc2nccs2)cc1 | 42.1% | – | 9.2 µM [rising, partial curve, poor fit]
O=C(COc1ccc(F)cc1Br)N1CCN(S(=O)(=O)/C=C/c2ccccc2)CC1 | 31.9% | – | 2.06 µM [rising, full curve]
CC1(c2ccc3noc(-c4ccccc4)c3c2)OCCO1 | -10.3% | 3.66 µM [rising, partial curve] | –
Cc1sc2ncn(CC(=O)N3CCN(c4ccccn4)CC3)c(=O)c2c1S(=O)(=O)N1CCCCC1 | 25.4% | 1.03 µM [falling, single point] | –
COc1ccc(CC(=O)Nc2ccc(S(=O)(=O)Nc3cc(C)on3)cc2)cc1OC | 12.9% | 29.1 µM [rising, single point] | –
Cc1ccc(C2CC(c3ccc(F)cc3)Nc3nc(N)nn32)cc1 (stereo not drawn) | 10.9% | 7.31 µM [rising, partial curve, poor fit] | –
O=C(CN1C(=O)NC2(CCCc3ccccc32)C1=O)c1ccc(Br)cc1 (stereo not drawn) | 117% | 0.461 µM [rising, full curve] | 29.1 µM [rising, single point]
Cc1ccc(C(=O)Nc2c(-c3cccs3)c(=O)c3ccccc3n2C)cc1 | 44.5% | 16.4 µM [rising, partial curve] | 10.3 µM [rising, partial curve, poor fit]
COc1ccc(/C=C2\SC(=O)N(CCC(=O)N3CCCCC3CCO)C2=O)cc1 (stereo not drawn) | 2.97% | 29.1 µM [falling, single point] | –
COc1ccc(-c2nnc(NC(=O)CS(=O)(=O)c3ccc(Cl)cc3)o2)c(OC)c1 | 41.9% | – | 18.4 µM [rising, single point]
c1ccc(-n2nnc3c(N4CCOCC4)ncnc32)cc1 | -16.1% | 0.82 µM [falling, full curve] | –
Cc1ccc(C)c(NC(=O)CN(C)C(=O)C2COc3ccccc3O2)c1 (stereo not drawn) | 5.64% | 0.146 µM [rising, full curve] | 0.517 µM [rising, full curve, poor fit]
COc1ncccc1-c1nnn(-c2ccc(C)cc2)n1 | 1.72% | 0.116 µM [rising, full curve, poor fit] | –
COc1c(Cl)cc(Cl)cc1/C=C/C(=O)c1ccc(NC(=O)c2cccs2)cc1 | -7.46% | 25.9 µM [falling, single point] | –

Full records as entered above. Values in the order: cell number change | AC50 [1] | AC50 [2]
`COc1c(Cl)cc(Cl)cc1/C=C/C(=O)c1ccc(NC(=O)c2cccs2)cc1` as listed: -7.46% | 25.9 µM [falling, single point] | –
`COc1ccc(/C=C2\SC(=O)N(CCC(=O)N3CCCCC3CCO)C2=O)cc1` (stereo not drawn) as listed: 2.97% | 29.1 µM [falling, single point] | –
